Data on seven sequences can be found in article PMC9299586.

Construct, isoform or probe ends are uncertain for at least one entry. A negative result means that nothing was seen under these conditions.

The target in the data set is His-SlPIF3 (bHLH domain) (Solanum lycopersicum) (UniProt A0A3Q7EQR7). The experiment in a line: EMSA. The following applies: LightShift Chemiluminescent EMSA Kit (Thermo Fisher); pH and temperature not stated; recombinant protein; residues 421-535; protein details: His (pET-32a vector); label: biotin (3' end labelling kit). For orientation: Mobility shift assays separate free from complexed probe on a gel.
Consider “ATGAAATTGCCACGTGTCATTAAACGTGAG (double strand) [ProSlMYB-Like-B]”, for which the binding result was “binds”.

For “CTTTTTAATCACCCCCCATCTTATATCTCA (double strand) [mProSlCWIN9-B]”, the binding result is given as “no binding”. For “ATGAAATTGCCCCCTGTCATTAAACGTGAG (double strand) [mProSlMYB-Like-B]”, the binding result is given as “no binding”. As for “AATTCATCTTCTCCACGTGACAACAACAAA (double strand) [ProSlGLT1-B]”, the binding result is reported as “binds”. As to “CTTTTTAATCACACGTGATCTTATATCTCA (double strand) [ProSlCWIN9-B]”, the binding result is “binds”. With “TGCCACTTTCTCATGTGAAACTCAAAATTT (double strand) [ProSlToFZY2-B]”, the binding result is given as “no binding”. For “AATTCATCTTCTCGTGACAACAACAAA (double strand) [mProSlGLT1-B]”, the binding result is listed as “no binding”.
